According to patent US20030162221A1:
These are yes or no findings as the source states them, for the method shown. Binding seen in cells or lysates may run through a third protein. Some binding calls cover weakened binding; strength is not graded here. Where a sequence is shown, tags or fusion partners need not be part of it.

What was measured:
[1] = target: T1, Rad18 (Saccharomyces cerevisiae) (UniProt P10862); assay: anti-FLAG co-IP, LC-MS/MS; pair by Table 2
T1 sequence (looked up): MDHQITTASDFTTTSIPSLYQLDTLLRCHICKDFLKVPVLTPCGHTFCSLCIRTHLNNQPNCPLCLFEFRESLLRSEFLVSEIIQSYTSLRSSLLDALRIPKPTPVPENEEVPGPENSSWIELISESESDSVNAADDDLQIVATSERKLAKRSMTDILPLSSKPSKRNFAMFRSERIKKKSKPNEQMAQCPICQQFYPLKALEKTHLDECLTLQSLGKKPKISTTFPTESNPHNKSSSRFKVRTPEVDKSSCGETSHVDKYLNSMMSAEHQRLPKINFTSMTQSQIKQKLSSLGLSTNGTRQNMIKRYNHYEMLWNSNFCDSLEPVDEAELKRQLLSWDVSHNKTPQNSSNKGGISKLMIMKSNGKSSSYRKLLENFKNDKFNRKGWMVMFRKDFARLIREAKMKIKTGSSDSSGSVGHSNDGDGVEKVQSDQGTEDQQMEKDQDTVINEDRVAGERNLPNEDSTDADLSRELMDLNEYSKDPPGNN

[2] = target: T1, Rad18 (Saccharomyces cerevisiae); assay: anti-FLAG co-IP, LC-MS/MS
[3] = target: T2, Mms2 (Saccharomyces cerevisiae) (UniProt P53152); assay: anti-FLAG co-IP, LC-MS/MS
T2 sequence (looked up): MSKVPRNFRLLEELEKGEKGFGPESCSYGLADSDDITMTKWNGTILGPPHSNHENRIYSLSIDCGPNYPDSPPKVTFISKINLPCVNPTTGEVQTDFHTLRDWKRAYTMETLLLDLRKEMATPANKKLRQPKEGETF

Measured: binding

B1: Ubc13 (protein, Saccharomyces cerevisiae, UniProt P52490 1-153, looked up)
chain: MASLPKRIIKETEKLVSDPVPGITAEPHDDNLRYFQVTIEGPEQSPYEDGIFELELYLPDDYPMEAPKVRFLTKIYHPNIDRLGRICLDVLKTNWSPALQIRTVLLSIQALLASPNPNDPLANDVAEDWIKNEQGAKAKAREWTKLYAKKKPE
binds: all assays above
